No constants are given. Whether binding was seen depends on the method and setting. Binding seen in cells or lysates may run through a third protein. Binding can be weak; no strength is given. For part of these data: Tags and fused reporters may be left off the sequences shown.
Assays:
[1] = target: T1, NEPN (mouse NEPN, His-tagged, secreted into conditioned medium of A375-NEPN and NALM6-NEPN cells) (mouse) (UniProt Q9CQ76); experiment: co-IP
T1 sequence: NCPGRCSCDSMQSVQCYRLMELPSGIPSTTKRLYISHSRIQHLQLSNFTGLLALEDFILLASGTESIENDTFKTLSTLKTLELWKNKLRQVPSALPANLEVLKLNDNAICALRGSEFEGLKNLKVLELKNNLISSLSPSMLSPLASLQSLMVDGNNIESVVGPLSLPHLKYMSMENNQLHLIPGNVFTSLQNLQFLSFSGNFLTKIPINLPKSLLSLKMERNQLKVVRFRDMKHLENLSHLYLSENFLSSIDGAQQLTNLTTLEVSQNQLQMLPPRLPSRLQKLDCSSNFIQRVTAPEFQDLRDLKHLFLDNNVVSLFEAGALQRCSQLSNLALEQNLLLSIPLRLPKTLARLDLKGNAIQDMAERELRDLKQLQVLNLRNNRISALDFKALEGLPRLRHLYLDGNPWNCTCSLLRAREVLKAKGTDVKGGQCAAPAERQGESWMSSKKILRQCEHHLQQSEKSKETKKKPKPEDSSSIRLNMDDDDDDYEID

[2] = target: T2, NEPN (bait of the immunoprecipitations from tumor lysates and from the liver metastasis site) (mouse) (UniProt Q9CQ76); experiment: co-IP
T2 sequence: T1 sequence

| Substance | binding [1] | binding [2] |
| --- | --- | --- |
| latent transforming growth factor β-binding protein (LTBP) (human (endogenous in A375 and NALM6)) | binds |  |
| TGF-β (cytokine found in the NEPN immunoprecipitate of the liver metastasis site) (ligand) |  | binds |
| active TGFβ1 (human (endogenous in A375 and NALM6)) (ligand) | binds |  |
